Results as given in article PMC3726584.
No constants are given. Whether binding was seen depends on the method and setting. For some assays here: Binding seen in cells or lysates may run through a third protein. Some binding calls cover weakened binding; strength is not graded here.

Protein sequences, listed by entry. Tags and fused reporters are not part of them.
UniProt P05556: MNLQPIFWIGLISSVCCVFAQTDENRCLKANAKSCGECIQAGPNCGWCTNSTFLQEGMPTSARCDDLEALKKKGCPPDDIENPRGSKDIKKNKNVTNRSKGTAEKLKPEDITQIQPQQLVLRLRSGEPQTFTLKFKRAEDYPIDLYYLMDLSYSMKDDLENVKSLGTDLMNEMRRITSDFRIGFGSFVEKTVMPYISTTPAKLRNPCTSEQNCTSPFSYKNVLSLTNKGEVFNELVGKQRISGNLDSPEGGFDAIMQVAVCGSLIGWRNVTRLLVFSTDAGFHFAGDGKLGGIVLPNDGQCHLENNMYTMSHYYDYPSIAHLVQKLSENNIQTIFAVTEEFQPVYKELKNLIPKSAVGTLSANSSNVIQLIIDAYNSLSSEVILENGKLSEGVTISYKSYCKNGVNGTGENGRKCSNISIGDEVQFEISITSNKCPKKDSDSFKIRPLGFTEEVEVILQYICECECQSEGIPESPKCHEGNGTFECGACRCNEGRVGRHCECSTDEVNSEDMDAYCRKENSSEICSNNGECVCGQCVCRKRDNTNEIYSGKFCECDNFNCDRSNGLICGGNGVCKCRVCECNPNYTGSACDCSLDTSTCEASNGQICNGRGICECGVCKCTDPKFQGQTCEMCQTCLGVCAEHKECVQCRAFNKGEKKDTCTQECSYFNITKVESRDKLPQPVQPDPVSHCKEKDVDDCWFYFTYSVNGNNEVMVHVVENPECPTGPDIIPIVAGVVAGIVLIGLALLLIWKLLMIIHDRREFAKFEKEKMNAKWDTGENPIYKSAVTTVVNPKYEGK

Key:
[1] = biological target: Integrin beta-1 (human (endogenous in primary RPE cells)) (UniProt P05556); test: co-IP; 375 µg RPE cell lysate (1% Triton X-100), no cross-linking; 2 µg monoclonal anti-CD147, anti-integrin-α3 or anti-integrin-β1 on ProteinG Sepharose, 2 h in the cold; eluates immunoblotted with anti-Gal-3
[2] = biological target: Integrin beta-1 (human (endogenous in primary RPE cells)) (UniProt P05556); test: flow cytometry on cells; biotinylated Gal-3 (50 µg/mL in the methods, 40 ug/mL in the legend) on RPE cells, 1 h at 4°C, avidin-FITC; cells first incubated with anti-CD147, anti-integrin-β1 or anti-integrin-α3 antibody to block these sites; cell surface binding inhibited by 100 mM β-lactose, not by sucrose; only the binder purified

binding [1] | binding [2] | Substance
binds | – | Galectin-3 (endogenous) (from UniProt P17931 1-250)
– | binds | Recombinant human galectin-3, biotinylated (from UniProt P17931 1-250)
